Consider 15 targets from the supplement of paper PMC11006884.

The chains behind the UniProt entries cited, without tags or fusion partners. Where a name states a change or a piece, a line headed by the entry shows the natural chain unless it says otherwise.
UniProt P55265: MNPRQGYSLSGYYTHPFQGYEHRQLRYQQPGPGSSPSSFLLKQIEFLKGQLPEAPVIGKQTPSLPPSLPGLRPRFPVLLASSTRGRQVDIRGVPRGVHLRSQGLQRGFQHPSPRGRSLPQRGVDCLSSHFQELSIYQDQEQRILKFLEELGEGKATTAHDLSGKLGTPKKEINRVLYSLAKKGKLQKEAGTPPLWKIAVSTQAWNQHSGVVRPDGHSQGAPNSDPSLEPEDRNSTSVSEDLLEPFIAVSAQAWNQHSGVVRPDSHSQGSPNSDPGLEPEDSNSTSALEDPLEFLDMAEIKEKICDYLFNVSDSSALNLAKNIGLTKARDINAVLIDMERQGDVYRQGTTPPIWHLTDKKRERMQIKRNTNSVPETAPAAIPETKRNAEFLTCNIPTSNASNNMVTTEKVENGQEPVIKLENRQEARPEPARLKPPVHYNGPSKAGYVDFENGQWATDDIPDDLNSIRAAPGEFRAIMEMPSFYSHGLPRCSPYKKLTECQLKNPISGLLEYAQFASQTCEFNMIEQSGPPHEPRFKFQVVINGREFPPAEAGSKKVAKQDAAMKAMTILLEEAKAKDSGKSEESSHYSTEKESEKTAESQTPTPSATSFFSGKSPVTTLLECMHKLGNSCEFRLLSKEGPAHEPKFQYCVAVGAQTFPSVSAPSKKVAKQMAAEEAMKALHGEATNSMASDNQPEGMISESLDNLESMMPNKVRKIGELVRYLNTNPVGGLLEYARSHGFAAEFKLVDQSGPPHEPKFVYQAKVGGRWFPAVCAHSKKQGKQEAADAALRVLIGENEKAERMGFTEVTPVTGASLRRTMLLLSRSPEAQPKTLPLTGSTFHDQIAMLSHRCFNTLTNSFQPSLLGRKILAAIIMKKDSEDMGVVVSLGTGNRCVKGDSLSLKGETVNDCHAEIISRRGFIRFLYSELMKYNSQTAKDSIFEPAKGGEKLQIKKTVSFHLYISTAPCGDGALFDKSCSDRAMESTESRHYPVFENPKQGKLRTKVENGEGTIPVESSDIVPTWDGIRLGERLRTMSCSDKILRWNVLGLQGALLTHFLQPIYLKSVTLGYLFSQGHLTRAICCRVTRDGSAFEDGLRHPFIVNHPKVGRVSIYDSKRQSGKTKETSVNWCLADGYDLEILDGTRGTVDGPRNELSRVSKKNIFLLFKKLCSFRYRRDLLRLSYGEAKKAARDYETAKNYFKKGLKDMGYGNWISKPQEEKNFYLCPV
UniProt P55212: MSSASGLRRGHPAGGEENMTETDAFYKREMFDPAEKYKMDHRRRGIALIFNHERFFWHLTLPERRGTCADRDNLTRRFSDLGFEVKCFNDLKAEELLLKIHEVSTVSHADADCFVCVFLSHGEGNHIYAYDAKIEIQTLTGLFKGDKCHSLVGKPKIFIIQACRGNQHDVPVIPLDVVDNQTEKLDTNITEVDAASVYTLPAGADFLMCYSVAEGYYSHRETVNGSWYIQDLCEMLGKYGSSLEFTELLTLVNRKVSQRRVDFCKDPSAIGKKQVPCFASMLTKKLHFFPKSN
UniProt P54132: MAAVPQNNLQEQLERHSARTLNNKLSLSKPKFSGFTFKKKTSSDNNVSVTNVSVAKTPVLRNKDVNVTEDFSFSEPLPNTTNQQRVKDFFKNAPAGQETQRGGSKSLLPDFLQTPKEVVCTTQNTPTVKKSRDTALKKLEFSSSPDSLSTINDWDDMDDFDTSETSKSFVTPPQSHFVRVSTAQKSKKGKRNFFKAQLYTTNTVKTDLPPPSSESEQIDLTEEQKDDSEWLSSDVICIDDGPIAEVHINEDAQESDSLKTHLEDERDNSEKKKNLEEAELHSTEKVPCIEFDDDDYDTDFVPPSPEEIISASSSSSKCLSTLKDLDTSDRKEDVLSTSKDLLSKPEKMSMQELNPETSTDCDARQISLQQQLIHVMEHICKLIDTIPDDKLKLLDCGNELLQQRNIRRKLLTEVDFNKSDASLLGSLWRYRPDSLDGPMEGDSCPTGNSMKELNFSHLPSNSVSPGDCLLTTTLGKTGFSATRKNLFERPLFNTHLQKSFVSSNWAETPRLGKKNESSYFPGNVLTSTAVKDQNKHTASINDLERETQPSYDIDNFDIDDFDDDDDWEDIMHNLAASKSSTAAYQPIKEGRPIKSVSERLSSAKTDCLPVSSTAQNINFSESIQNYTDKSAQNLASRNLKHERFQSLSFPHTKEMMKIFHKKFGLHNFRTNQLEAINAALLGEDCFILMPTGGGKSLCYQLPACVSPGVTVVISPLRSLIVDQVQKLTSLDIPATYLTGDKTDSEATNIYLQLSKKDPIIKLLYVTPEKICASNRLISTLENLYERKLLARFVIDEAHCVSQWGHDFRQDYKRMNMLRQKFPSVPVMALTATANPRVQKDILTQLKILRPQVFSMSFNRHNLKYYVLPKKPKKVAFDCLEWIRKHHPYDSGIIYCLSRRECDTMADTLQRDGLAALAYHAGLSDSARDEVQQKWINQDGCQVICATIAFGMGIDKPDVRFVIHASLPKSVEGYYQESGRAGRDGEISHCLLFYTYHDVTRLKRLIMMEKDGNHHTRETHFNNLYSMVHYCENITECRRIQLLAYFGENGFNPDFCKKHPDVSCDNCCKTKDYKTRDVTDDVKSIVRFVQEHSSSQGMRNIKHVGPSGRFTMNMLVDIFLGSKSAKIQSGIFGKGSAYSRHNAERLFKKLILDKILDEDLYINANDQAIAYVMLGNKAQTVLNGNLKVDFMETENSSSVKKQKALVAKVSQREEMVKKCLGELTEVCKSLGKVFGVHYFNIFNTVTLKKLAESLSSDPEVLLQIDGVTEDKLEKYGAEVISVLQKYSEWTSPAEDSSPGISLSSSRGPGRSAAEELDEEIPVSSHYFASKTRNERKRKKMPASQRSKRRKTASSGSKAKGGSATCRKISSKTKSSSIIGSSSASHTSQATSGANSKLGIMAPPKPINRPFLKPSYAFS
UniProt P51649: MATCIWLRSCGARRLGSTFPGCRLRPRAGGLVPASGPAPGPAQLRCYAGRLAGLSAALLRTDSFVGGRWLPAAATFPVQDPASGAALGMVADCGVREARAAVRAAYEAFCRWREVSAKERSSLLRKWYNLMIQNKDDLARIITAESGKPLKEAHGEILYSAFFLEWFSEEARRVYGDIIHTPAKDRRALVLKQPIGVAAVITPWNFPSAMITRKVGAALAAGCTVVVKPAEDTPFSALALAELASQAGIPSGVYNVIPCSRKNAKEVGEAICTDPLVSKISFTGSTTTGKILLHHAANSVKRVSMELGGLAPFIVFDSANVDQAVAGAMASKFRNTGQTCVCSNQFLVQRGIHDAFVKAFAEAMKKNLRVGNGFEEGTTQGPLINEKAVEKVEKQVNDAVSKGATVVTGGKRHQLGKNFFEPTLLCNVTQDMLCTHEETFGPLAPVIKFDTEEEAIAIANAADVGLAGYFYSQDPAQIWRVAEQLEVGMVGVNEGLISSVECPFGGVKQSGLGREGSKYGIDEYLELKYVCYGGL
UniProt P53384: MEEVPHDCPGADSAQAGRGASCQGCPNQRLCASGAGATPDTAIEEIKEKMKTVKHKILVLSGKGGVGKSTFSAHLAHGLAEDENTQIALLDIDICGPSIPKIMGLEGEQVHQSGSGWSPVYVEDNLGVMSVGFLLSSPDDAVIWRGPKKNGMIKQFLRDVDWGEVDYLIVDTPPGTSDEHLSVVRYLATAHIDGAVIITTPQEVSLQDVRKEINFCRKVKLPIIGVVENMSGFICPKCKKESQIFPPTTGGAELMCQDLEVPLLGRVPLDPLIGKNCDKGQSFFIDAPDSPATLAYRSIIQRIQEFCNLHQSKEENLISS
UniProt P52306: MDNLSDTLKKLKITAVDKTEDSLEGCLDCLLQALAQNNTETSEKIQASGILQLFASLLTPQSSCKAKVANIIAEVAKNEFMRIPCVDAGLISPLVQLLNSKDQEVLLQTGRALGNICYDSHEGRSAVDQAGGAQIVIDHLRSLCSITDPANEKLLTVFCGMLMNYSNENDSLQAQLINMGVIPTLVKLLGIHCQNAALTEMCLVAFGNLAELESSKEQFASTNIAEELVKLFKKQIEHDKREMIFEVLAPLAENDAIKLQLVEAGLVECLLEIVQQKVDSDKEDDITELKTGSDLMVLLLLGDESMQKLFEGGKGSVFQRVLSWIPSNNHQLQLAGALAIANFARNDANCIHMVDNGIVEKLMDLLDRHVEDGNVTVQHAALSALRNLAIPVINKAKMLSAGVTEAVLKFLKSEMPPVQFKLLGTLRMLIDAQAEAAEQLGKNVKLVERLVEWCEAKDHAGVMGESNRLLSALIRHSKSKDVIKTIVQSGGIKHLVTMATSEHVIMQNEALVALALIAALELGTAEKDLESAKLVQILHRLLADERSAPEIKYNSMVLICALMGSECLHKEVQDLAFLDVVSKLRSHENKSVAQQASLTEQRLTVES
UniProt P54105: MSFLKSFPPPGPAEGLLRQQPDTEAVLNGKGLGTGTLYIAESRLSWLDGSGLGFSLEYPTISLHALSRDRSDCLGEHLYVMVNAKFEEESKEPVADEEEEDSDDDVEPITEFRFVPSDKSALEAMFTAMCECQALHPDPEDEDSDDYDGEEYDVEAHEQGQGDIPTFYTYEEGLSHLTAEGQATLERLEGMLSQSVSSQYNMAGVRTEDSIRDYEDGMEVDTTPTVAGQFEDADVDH
UniProt P52594: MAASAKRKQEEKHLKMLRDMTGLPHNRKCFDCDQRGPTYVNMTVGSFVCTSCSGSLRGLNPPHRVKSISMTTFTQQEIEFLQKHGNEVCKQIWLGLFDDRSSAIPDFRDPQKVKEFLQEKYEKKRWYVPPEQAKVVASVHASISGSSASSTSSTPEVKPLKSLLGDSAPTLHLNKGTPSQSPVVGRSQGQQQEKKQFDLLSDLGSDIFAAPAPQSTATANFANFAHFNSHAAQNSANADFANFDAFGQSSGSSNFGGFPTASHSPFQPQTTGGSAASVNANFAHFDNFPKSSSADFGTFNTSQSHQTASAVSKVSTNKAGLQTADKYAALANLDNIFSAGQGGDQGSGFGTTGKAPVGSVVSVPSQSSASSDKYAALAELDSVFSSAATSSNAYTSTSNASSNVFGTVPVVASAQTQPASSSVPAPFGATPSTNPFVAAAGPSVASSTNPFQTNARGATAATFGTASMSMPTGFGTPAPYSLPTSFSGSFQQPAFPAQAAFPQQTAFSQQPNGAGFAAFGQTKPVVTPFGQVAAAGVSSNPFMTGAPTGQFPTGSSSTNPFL
UniProt P57678: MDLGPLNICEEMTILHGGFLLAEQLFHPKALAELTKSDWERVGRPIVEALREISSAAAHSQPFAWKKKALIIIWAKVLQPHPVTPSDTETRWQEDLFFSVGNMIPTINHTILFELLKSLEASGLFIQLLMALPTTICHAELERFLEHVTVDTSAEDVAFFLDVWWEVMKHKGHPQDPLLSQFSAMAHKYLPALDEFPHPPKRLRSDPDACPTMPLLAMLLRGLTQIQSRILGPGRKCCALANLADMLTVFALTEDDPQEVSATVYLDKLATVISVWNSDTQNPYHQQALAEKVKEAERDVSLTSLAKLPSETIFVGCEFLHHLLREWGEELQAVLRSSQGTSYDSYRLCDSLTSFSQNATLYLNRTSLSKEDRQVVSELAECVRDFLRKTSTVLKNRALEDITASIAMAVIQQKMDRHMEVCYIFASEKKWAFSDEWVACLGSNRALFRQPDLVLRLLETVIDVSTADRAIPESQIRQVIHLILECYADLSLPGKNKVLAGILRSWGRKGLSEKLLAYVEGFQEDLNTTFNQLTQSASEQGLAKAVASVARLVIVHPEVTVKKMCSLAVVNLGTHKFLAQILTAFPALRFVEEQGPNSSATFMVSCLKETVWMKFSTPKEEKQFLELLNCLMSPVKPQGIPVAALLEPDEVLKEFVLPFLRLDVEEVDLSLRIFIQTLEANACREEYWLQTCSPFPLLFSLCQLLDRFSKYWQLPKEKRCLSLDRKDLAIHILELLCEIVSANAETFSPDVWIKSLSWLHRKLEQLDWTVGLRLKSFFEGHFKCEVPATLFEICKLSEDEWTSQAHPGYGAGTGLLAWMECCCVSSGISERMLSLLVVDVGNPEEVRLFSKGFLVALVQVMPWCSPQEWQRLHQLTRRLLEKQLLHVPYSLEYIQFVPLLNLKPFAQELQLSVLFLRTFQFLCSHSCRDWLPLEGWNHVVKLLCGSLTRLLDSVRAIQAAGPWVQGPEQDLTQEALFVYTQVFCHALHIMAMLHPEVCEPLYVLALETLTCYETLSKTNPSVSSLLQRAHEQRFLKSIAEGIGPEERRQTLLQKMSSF
UniProt P61077: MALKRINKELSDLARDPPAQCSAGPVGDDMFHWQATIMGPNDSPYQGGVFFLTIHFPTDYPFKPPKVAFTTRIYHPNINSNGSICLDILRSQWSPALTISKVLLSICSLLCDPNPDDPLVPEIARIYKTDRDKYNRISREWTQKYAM

This is a selection; strong and weak results do not stand in their true shares.

Compound in the experiment: COC(=O)C#Cc1ccccc1 [methyl 3-phenylpropiolate]
As to the kind of experiment: log2 ratio of iodoacetamide-alkyne labeling of the cysteine site, DMSO over compound (competition); higher = stronger covalent engagement of the cysteine by the compound, active = 1 or more. As to conditions: 500 µM; treatment time 1 h; system: HEK293T cell lysate. In outline: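 Reporter intensities give each cysteine's log2 competition ratio as the mean of control channels over the mean of compound channels. The samples were HEK293T lysate (2 mg/mL) given vehicle or electrophile (500 µM, 1 h, ambient temperature), then iodoacetamide alkyne (1 h), followed by click coupling to sCIP-TMT reagents, pooling, trypsin digestion overnight at 37 °C, streptavidin enrichment, acid elution, Orbitrap Eclipse LC-MS/MS with FAIMS and FragPipe quantification. Duplicate channels and three replicates were run, and cysteines quantified in only one replicate were discarded.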
Turning to PMS2 C216 (UniProt P54278), the “log2 ratio of iodoacetamide-alkyne labeling” value (“log2 ratio” below) is inactive: 0.722.

For ADAR C851 (UniProt P55265), the “log2 ratio” value is inactive: -0.118. AK2 C40 (UniProt P54819): the “log2 ratio” value was inactive: 0.0385. As for CASP6 C68 (UniProt P55212), the “log2 ratio” value was inactive: 0.0483.

For UniProt P62241_C72, the “log2 ratio” value is inactive: -0.0565. The result for BLM C685 (UniProt P54132) reads inactive: 0.197; that for ALDH5A1 C340 (UniProt P51649), inactive: 0.926.

Consider NUBP1 C25 (UniProt P53384), for which the “log2 ratio” value was active: 2.24.

For AK2 C232 (UniProt P54819), the “log2 ratio” value is inactive: -0.302. With RAP1GDS1 C144 (UniProt P52306) the figure was inactive: 0.0633; with CLNS1A C73 (UniProt P54105), inactive: 0.45; with AGFG1 C89 (UniProt P52594), inactive: 0.163.

Take GEMIN4 C210 (UniProt P57678): the “log2 ratio” value is inactive: 0.946. With UniProt P61077_C107 the figure was inactive: 0.119; with BLM C607 (UniProt P54132), inactive: 0.145.
